Test results published in patent US6284734A, “Inhibitors against prostate-specific antigen” (JCR Pharmaceuticals Co., Ltd., priority 1997, dated 2001).
Entries after “also recorded” stand apart in the source; their conditions may differ. At least one peptide structure holds a part that was inferred or is arguable (an end, a ring closure or a residue). No end group written: not given here.

The chains behind the UniProt entries cited, without tags or fusion partners. Residues count along the entry.
UniProt P07288, 25-261: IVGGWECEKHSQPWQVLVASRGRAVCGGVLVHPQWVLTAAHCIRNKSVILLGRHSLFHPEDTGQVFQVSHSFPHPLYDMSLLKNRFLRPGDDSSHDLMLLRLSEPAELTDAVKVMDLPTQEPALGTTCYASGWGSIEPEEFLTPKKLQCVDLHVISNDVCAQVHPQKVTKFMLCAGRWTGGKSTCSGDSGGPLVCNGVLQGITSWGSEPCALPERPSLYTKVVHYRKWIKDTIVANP

How the values were obtained:
Format in all cases: biochemical
kallikrein = assay: Kallikrein activity assay with Pro-Phe-Arg-MCA substrate in place of PSA
PSA [1] = biological target: T1, PSA (Homo sapiens, UniProt P07288); assay: Degradation of r-IGFBP3 by PSA, SDS electrophoresis and Western blotting with densitometry
T1 construct: Using PSA as purified from human urine or seminal plasma; from tissue; host or cells: human urine or seminal plasma
Procedure: And PSA degrades r-IGFB3 into fragments, whereby its degradation process can be confirmed by means of SDS-electrophoresis and Western blotting.
A specimen was prepared by dissolving 0.57 μg of PSA and 2.0 μg of r-IGFBP3 (manufactured by Upstate Co. of USA) in 0.1M Tris-hydrochloride buffer (pH 8.0), followed by reaction at 37° C. for 16 hrs, while another specimen was prepared by dissolving 0.57 μg of PSA, 2.0 μg of r-TGFBP3 (manufactured by Upstate Co. of USA) and 4 nmol of Peptide 4 in 0.1M Tris-hydrochloride buffer (pH 8.0), followed by reaction at 37° C. for 16 hrs. Each of the specimens was subjected to a 4 to 20% gradient gel to conduct SDS electrophoresis under non-reduction in the conditions described by Laemmli et al. (Iqature, 227: 680-685, 1970). After electrophoresis, separated proteins were transferred to a nitrocellulose membrane to carry out Western blotting using anti-IGFBP3 antibody (produced by Biogenesis Co. of USA) as a primary antibody and anti-rabbit antibody (produced by Promega Co. of USA) labeled with horseradish peroxidase (HRP) as a secondary antibody. The HRP activity was detected by chemiluminescence (Renaissance Western Blot Chemiluminescence Reagent, NEN™ produced by Life Science Products Co. of USA), and the protein bands as detected were quantitatively determined by use of a densitometer.

PSA [2] = biological target: T1, PSA; assay: PSA activity assay with Pro-Phe-Arg-MCA substrate, residual activity in coexistence of peptides
Procedure: Then, investigation was conducted into whether or not these peptides act to inhibit the PSA activity.
While using […] of 100 μM or 10 μM Pro-Phe-Arg-MCA (supplied by Peptide Research. Institute of Japan) as a substrate, 0.1 ml of 100 μM of each of Peptides 1 to 5 was mixed with the substrate and 0.7 ml of 0.1M Tris-hydrochloride buffer (pH 8.0) to allow the reaction to proceed at 37° C. for 5 min, followed by addition of 0.1 ml of 0.12 mg/ml PSA solution. The reaction solution was subjected to time-course measurement of fluorescence intensity (Ex380 nm, Em460nm) at 37° C. for 3 min, and the inhibitory activity value was determined from a slope of the straight line. […] In the above experiments, Pro-Phe-Arg-MCA, Peptides 1 to 5 PSA and kallikrein were used after being dissolved in 0.1M Tris-hydrochloride buffer (pH 8.0).
These findings are in good agreement with the fact that PSA a protease belonging to the kallikrein family .

GFYKKKQSR [Peptide 4, Gly(217)-Phe-Tyr-Lys-Lys-Lys-Gln-Ser-Arg(225)]
Residual activity rate (%) after addition of Peptides (kallikrein; column C, enzyme added Kallikrein, Substrate:Peptide molar ratio 1:1, 100% without any Peptide): 44.1%
Suppression of the kallikrein activity (in words) (kallikrein; substrate and Peptide at equimolar ratio): kallikrein activity being suppressed
Suppression of degradation of r-IGFBP3 by PSA (in words) (PSA [1]; SDS-electrophoresis and Western blotting): suppress significantly the degradation
Surface area of the 50 kDa band (PSA [1]; r-IGFBP3 + PSA + 4 nmol Peptide 4, 37° C. 16 hrs, r-IGFBP3 alone 29.8, r-IGFBP3 + PSA 14.9): 19.4
Inhibition of the PSA activity (in words) (PSA [2]): inhibited specifically the PSA activity; also recorded: concentration-dependent inhibition of the PSA activity
